Results as given in publication PMC10182654, “The pattern of histone H3 epigenetic posttranslational modifications is regulated by the VRK1 chromatin kinase” (Epigenetics & Chromatin, 2023).
No constants are given. Whether binding was seen depends on the method and setting. In cells and extracts the contact can be indirect. Some entries that bind do so weakly or less than the wild type. Sequences can lack the tags named with a protein.

Chains of the proteins cited; added tags and fusions are not shown.
UniProt Q13547: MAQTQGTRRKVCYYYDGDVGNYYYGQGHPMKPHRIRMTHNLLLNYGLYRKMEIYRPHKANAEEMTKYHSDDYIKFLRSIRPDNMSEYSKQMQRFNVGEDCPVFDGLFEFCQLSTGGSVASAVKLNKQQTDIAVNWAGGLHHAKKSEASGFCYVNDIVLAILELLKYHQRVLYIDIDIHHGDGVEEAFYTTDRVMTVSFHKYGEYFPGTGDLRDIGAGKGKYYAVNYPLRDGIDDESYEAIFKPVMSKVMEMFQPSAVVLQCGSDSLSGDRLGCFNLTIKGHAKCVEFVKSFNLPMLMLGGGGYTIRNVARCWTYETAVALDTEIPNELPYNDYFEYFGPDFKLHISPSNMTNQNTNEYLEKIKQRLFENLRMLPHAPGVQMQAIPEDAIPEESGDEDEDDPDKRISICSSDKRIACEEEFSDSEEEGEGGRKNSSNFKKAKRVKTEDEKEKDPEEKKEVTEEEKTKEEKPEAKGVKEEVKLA
UniProt Q92831: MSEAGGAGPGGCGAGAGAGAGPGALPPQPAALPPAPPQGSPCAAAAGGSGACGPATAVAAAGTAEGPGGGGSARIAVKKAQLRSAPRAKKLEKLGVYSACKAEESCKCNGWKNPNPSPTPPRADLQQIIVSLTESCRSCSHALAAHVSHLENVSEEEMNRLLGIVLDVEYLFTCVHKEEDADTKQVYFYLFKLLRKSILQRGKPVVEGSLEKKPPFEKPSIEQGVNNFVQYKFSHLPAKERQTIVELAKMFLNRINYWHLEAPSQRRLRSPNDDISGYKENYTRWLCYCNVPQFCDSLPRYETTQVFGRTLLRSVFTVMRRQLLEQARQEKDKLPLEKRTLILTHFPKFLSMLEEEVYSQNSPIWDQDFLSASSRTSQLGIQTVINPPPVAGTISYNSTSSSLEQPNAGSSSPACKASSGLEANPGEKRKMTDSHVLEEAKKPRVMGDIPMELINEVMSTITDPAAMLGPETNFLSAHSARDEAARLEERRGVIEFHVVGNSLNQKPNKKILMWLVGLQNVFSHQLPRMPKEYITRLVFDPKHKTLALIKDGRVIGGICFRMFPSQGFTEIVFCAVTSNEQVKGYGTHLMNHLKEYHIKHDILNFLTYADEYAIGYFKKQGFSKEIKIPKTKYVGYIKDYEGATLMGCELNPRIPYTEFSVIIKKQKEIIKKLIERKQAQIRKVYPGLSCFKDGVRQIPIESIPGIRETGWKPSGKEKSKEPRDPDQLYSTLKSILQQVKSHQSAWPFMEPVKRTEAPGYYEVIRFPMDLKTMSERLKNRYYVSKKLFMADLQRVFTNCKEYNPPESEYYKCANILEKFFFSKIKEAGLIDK

Legend:
Assay in all cases: co-IP; 0.5–1 mg whole-cell extracts of transfected HEK293T cells; specific antibody 6–8 h at 4, then Protein G–Agarose overnight at 4 °C; immunoblot; increasing amounts of transfected plasmid in some panels
[1] = target: T1, KDM3A (JMJD1A)-V5 (human) (UniProt Q9Y4C1)
T1 sequence: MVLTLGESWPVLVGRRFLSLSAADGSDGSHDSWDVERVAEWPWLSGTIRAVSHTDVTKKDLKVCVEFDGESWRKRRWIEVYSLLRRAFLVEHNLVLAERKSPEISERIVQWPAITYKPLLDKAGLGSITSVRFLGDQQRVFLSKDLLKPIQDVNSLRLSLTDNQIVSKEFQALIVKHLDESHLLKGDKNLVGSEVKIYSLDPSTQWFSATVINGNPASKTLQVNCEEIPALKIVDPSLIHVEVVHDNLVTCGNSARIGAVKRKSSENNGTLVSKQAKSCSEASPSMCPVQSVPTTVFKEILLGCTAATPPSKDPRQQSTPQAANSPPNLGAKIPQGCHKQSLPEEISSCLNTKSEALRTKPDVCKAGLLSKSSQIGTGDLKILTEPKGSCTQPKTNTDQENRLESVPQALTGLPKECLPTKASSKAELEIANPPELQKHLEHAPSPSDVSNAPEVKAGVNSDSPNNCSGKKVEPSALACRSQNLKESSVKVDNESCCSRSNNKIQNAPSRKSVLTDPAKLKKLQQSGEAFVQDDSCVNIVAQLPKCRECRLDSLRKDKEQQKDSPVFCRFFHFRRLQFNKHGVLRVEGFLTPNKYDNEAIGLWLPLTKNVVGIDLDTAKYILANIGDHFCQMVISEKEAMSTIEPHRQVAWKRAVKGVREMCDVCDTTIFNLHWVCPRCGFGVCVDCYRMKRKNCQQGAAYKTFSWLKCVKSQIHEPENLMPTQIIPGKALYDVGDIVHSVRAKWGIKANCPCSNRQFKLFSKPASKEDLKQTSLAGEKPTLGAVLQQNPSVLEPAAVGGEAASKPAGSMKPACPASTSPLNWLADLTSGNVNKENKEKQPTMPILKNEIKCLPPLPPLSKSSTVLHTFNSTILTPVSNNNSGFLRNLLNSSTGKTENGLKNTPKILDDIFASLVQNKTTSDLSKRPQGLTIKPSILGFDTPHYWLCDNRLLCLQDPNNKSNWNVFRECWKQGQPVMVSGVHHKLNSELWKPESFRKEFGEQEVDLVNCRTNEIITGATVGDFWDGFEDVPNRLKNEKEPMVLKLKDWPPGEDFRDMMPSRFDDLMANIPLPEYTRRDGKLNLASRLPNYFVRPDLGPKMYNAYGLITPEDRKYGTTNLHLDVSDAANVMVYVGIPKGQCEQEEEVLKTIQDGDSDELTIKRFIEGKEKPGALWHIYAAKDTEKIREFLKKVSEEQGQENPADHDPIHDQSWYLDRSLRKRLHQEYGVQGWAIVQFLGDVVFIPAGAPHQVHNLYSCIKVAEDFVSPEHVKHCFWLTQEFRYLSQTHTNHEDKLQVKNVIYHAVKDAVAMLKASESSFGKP

[2] = target: HDAC1-Flag (human) (UniProt Q13547)
[3] = target: PCAF-Flag (human) (UniProt Q92831)
[4] = target: T2, KDM4A (JMJD2A)-HA (human) (UniProt O75164)
T2 sequence: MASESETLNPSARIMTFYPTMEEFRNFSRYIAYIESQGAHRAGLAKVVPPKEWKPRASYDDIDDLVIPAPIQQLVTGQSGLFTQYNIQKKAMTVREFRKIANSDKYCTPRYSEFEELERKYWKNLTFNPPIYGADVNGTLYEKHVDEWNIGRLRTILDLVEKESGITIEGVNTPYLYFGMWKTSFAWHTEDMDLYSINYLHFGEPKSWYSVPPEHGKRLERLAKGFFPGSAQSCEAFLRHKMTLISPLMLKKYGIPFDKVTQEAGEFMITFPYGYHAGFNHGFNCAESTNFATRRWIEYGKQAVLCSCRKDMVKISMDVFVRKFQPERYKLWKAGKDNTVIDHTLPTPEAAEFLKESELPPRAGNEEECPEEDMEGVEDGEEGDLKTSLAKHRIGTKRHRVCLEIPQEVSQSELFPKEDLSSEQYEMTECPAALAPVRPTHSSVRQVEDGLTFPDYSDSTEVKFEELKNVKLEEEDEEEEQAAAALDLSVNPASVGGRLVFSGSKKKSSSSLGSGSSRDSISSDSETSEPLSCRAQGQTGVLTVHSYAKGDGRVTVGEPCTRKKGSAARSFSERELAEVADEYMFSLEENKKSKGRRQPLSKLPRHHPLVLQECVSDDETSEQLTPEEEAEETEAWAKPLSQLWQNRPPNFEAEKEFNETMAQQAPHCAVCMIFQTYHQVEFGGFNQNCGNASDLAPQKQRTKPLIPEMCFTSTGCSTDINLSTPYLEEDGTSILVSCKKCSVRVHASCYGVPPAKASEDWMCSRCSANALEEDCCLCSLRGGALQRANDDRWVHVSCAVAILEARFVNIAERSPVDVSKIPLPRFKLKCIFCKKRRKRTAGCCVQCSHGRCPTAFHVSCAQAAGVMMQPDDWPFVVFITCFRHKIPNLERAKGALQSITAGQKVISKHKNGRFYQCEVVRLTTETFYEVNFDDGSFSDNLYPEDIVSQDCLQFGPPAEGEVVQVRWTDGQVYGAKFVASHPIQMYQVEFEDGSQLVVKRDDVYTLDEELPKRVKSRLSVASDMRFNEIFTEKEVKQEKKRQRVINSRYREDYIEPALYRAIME

Measured: binding

B1: endogenous VRK1 (enzyme, UniProt Q99986 1-396)
chain: MPRVKAAQAGRQSSAKRHLAEQFAVGEIITDMAKKEWKVGLPIGQGGFGCIYLADMNSSESVGSDAPCVVKVEPSDNGPLFTELKFYQRAAKPEQIQKWIRTRKLKYLGVPKYWGSGLHDKNGKSYRFMIMDRFGSDLQKIYEANAKRFSRKTVLQLSLRILDILEYIHEHEYVHGDIKASNLLLNYKNPDQVYLVDYGLAYRYCPEGVHKEYKEDPKRCHDGTIEFTSIDAHNGVAPSRRGDLEILGYCMIQWLTGHLPWEDNLKDPKYVRDSKIRYRENIASLMDKCFPEKNKPGEIAKYMETVKLLDYTEKPLYENLRDILLQGLKAIGSKDDGKLDLSVVENGGLKAKTITKKRKKEIEESKEPGVEDTEWSNTQTEEAIQTRSRTRKRVQK
binds: all assays above

B2: VRK1-HA (enzyme, UniProt Q99986 1-396)
chain: MPRVKAAQAGRQSSAKRHLAEQFAVGEIITDMAKKEWKVGLPIGQGGFGCIYLADMNSSESVGSDAPCVVKVEPSDNGPLFTELKFYQRAAKPEQIQKWIRTRKLKYLGVPKYWGSGLHDKNGKSYRFMIMDRFGSDLQKIYEANAKRFSRKTVLQLSLRILDILEYIHEHEYVHGDIKASNLLLNYKNPDQVYLVDYGLAYRYCPEGVHKEYKEDPKRCHDGTIEFTSIDAHNGVAPSRRGDLEILGYCMIQWLTGHLPWEDNLKDPKYVRDSKIRYRENIASLMDKCFPEKNKPGEIAKYMETVKLLDYTEKPLYENLRDILLQGLKAIGSKDDGKLDLSVVENGGLKAKTITKKRKKEIEESKEPGVEDTEWSNTQTEEAIQTRSRTRKRVQK
binds: all assays above
